Results published in US12065471B2, “B*44 restricted peptides for use in immunotherapy against cancers and related methods” (Immatics Biotechnologies GmbH, priority 2018, dated 2024).
For some of these results: Expression values are those of the mRNA of the gene that encodes the peptide; a gene is named only where it was looked up.

How the values were obtained:
[1] = test system: source genes (mRNA) in tumor and normal tissues; test: Expression profiling of genes encoding the peptides (RNAseq); set-up: species or system human; conditions: for Gene Expression in tumor samples: highly over-expressed (++): tumor types in which the peptide's source gene is highly over-expressed compared to a panel of normal tissues (RNAseq); for Gene Expression in tumor samples: over-expressed (+): tumor types in which the peptide's source gene is over-expressed compared to a panel of normal tissues (RNAseq); for Gene Expression in tumor samples: very highly over-expressed (+++): tumor types in which the peptide's source gene is very highly over-expressed compared to a panel of normal tissues (RNAseq)
[2] = test system: HLA molecules of primary tumor and normal tissue samples; test: Identification and quantitation of tumor associated peptides presented on the cell surface (HLA immunoprecipitation, label-free LC-MS); set-up: species or system human; conditions: cancer entities on which the peptide was found presented (HLA immunoprecipitation, LC-MS); abbreviations in table footnotes

Substance	Gene Expression in tumor samples: highly over-expressed (++) [1]	Gene Expression in tumor samples: over-expressed (+) [1]	Peptide Presentation on cancer entities [2]	Gene Expression in tumor samples: very highly over-expressed (+++) [1]
47: peptide found in SIGLEC15 (gene looked up) (TEVHSSPAQRW; listed as Homo sapiens) [compound 47]	UBC	AML, CCC, GC, HCC, NHL, OC, PACA, UEC	NHL, UBC	
144: peptide found in NAT1 (gene looked up) (IEAYLERIGY; listed as Homo sapiens) [compound 144]	BRCA		BRCA	
432: peptide found in NAT1 (gene looked up) (TEENGFWYL; listed as Homo sapiens) [compound 432]	BRCA		BRCA	
328: peptide found in ROS1 (gene looked up) (HENGVLTKF; listed as Homo sapiens) [compound 328]		NSCLCadeno, NSCLCother, NSCLCsquam	NSCLCadeno, NSCLCsquam	
33: peptide found in FLT3 (gene looked up) (IEYENQKRL; listed as Homo sapiens) [compound 33]	AML		AML	
371: peptide found in TLR3 (gene looked up) (NEIGQELTGQEW; listed as Homo sapiens) [compound 371]		RCC	BRCA, CCC, CRC, GBM, HCC, HNSCC, MEL, NSCLCadeno, NSCLCsquam, OC, OSCAR, PACA, PRCA, RCC	
455: peptide found in PLD4 (gene looked up) (QESVHVASYYW; listed as Homo sapiens) [compound 455]		AML	CLL, UBC, UEC	
120: peptide found in LOXL4 (gene looked up) (VTEGAVEVKY; listed as Homo sapiens) [compound 120]	MEL	CCC	AML, BRCA, CRC, NSCLCadeno, OC	
207: peptide found in IRF4 (gene looked up) (LEGGGRGGEF; listed as Homo sapiens) [compound 207]	NHL	MEL	BRCA, OSCAR	
83: peptide found in F5 (gene looked up) (TEGGTQKTF; listed as Homo sapiens) [compound 83]	HCC	CCC	CCC, HCC, NHL, OSCAR	
210: peptide found in SIGLEC15 (gene looked up) (AEGEPPPALAW; listed as Homo sapiens) [compound 210]	UBC	HCC, MEL, NHL, OC, PACA, UEC	NHL, UBC	
14: peptide found in MMP12 (gene looked up) (EMPGGPVW; listed as Homo sapiens) [compound 14]	CCC, GBC, GC, MEL, NHL, NSCLCadeno, OC, OSCAR, PACA, UBC, UEC	HCC, RCC	CRC, UBC	CRC, HNSCC, NSCLCother, NSCLCsquam, SCLC
46: peptide found in MMP13 (gene looked up) (SELGLPKEV; listed as Homo sapiens) [compound 46]	HNSCC, NSCLCsquam, OSCAR	NSCLCadeno, UBC	HNSCC	
209: peptide found in SIGLEC15 (gene looked up) (AEGEPPPAL; listed as Homo sapiens) [compound 209]	UBC	HCC, MEL, NHL, OC, PACA, UEC	UBC	
13: peptide found in SLC6A3 (gene looked up) (VEAQDRETW; listed as Homo sapiens) [compound 13]		NSCLCadeno, NSCLCsquam, SCLC	RCC	RCC
